PubChem BioAssay AID1259314 – Drosophila RNAi Screening Center, 2017
The deposit covers about 3,100 reagents; shown is an unselected part. 289 of all reagents (9.3%) count as active. 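Active includes both higher and lower ATP than plate average; check the z-score sign for direction.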 Entries without a mark were called inactive. Reagents against one gene are numbered here. Not stated in the record: the amount of reagent.

Test: 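Genes whose knock-down alters cell survival under toxic manganese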 (primary screen)
Cells: Drosophila S2R+ cells
Reagent: long dsRNA against Drosophila genes
Timing: 5 days (4 days knock-down, then 1 day metal exposure)
Treatment: manganese chloride added to 15 mM for 24 hours
Detection: 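Cellular ATP measured by luciferase light, scaled to the plate mean, averaged across replicates and z-scored over plates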
Scale: mean ATP z-score: higher = more ATP than the plate average, more viable cells under manganese
Rule for the call: 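a mean ATP z-score past 1.5 in either direction is called active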
Meaning of the calls: active = strong ATP change, up or down; inactive = no strong ATP change

The opening 5 entries, ahead of the listing:
predicted target,reagent,mean ATP z-score
fj (four-jointed),1,-0.0232
fj (four-jointed),2,-1.16
CG32645,1,0.705
CG32645,2,-0.0376
Flo2 (Flotillin 2),1,2.52 (active)

Results, repeating the preview:
predicted target,reagent,mean ATP z-score
fj (four-jointed),1,-0.0232
fj (four-jointed),2,-1.16
CG32645,1,0.705
CG32645,2,-0.0376
Flo2 (Flotillin 2),1,2.52 (active)
Flo2 (Flotillin 2),2,0.14
VhaPPA1-2 (Vacuolar H[+] ATPase PPA1 subunit 2),1,0.841
VhaPPA1-2 (Vacuolar H[+] ATPase PPA1 subunit 2),2,-0.274
ZnT49B (Zinc transporter 49B),1,-0.684
ZnT49B (Zinc transporter 49B),2,0.442
Duox (Dual oxidase),1,0.0914
Duox (Dual oxidase),2,0.717
"Alg12 (Alg12 alpha-1,6-mannosyltransferase)",1,0.242
"Alg12 (Alg12 alpha-1,6-mannosyltransferase)",2,-0.992
CG14744,1,-0.417
Tango9 (Transport and Golgi organization 9),1,0.245
nAChRalpha1 (nicotinic Acetylcholine Receptor alpha1),1,0.124
nAChRalpha1 (nicotinic Acetylcholine Receptor alpha1),2,-0.253
CG5535,1,-0.508
CG5535,2,1.48
CG10413,1,0.15
ihog (interference hedgehog),1,0.71
ihog (interference hedgehog),2,-0.597
fend (forked end),1,0.0707
fend (forked end),2,-0.252
GluRIID (Glutamate receptor IID),1,1.87 (active)
GluRIID (Glutamate receptor IID),2,0.903
CG5906,1,-0.767
CG31106,1,-0.749
CG32204,1,-0.626
CG32204,2,-1.33
CG7497,1,-0.571
CG7497,2,-0.126
"mAChR-B (muscarinic Acetylcholine Receptor, B-type)",1,-0.953
"mAChR-B (muscarinic Acetylcholine Receptor, B-type)",2,-0.587
Nha2 (Na[+]/H[+] hydrogen antiporter 2),1,1.18
Nha2 (Na[+]/H[+] hydrogen antiporter 2),2,0.201
TM9SF3 (Transmembrane 9 superfamily protein member 3),1,-1.18
Or22c (Odorant receptor 22c),1,-0.378
Or22c (Odorant receptor 22c),2,-0.0888
wwk (white walker),1,-1.1
Or7a (Odorant receptor 7a),1,0.731
mthl10 (methuselah-like 10),1,1.4
mthl10 (methuselah-like 10),2,-0.285
mthl10 (methuselah-like 10),3,-0.189
